# Test results reported in publication PMC6527704.
# The chains behind the UniProt entries cited, without tags or fusion partners. Where a name states a change or a piece, a line headed by the entry shows the natural chain unless it says otherwise.
# UniProt Q01780: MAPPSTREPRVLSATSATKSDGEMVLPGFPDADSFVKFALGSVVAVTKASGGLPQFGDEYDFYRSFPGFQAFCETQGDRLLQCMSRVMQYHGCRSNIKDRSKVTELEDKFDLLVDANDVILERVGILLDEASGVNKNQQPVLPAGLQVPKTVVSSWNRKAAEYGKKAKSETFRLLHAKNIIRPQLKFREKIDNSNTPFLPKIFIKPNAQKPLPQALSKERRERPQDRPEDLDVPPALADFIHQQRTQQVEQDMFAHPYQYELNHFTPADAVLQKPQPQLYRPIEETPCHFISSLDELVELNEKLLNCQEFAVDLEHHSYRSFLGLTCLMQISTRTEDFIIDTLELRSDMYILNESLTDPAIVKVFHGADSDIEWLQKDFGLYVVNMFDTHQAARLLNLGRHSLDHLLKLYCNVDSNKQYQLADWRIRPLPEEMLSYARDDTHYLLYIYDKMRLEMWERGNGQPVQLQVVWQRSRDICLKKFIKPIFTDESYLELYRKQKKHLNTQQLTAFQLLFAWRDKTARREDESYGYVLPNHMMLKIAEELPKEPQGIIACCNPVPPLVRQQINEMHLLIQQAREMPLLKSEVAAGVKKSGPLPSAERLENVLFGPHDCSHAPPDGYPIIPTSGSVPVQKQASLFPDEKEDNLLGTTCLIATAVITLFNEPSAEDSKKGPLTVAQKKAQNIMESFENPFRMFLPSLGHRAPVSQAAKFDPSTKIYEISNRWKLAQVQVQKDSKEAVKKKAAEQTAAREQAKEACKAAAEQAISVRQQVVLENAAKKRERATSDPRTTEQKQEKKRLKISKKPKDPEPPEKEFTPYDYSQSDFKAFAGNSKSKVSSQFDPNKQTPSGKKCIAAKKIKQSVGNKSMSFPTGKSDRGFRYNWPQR
# UniProt Q15910: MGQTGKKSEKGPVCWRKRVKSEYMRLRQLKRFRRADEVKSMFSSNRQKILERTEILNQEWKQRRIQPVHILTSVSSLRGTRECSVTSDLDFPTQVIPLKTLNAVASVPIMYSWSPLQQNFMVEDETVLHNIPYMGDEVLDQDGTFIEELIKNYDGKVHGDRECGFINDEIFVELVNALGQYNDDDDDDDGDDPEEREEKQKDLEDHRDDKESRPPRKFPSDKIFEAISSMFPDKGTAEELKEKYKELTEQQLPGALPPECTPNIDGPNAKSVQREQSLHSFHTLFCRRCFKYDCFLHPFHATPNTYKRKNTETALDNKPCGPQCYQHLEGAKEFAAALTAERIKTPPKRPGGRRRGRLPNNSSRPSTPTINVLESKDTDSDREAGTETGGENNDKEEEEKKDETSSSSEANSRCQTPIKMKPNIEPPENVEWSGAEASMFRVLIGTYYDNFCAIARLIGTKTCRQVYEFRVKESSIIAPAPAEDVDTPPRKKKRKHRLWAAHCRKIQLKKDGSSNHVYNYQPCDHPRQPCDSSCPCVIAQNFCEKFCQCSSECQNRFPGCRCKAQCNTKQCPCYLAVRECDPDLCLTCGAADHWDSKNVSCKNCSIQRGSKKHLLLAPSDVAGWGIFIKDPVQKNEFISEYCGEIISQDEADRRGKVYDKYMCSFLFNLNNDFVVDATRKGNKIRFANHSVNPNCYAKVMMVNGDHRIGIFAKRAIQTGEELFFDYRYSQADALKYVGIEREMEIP
# UniProt Q13547: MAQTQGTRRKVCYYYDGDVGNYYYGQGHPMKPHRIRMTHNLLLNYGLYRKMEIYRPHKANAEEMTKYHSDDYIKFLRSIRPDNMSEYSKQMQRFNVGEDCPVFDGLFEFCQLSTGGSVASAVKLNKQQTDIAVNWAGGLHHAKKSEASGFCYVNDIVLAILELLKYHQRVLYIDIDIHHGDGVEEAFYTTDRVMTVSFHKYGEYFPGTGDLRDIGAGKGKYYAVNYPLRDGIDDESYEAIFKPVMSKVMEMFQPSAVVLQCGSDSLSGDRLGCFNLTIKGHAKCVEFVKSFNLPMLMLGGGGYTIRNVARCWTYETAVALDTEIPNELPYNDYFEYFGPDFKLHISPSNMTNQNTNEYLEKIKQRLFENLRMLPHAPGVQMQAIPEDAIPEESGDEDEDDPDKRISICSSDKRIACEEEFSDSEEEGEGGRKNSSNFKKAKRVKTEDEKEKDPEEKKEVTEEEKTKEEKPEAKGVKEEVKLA
# These are yes or no findings as the source states them, for the method shown. Binding seen in cells or lysates may run through a third protein. Some binding calls cover weakened binding; strength is not graded here.
# Assays:
# [1] = target: MiCEE complex (Mirlet7d-C1D-EXOSC10-EZH2) (human (endogenous in primary lung fibroblasts)) (UniProt Q13901+Q01780+Q15910); experiment: co-sedimentation; 5-40% sucrose gradient ultracentrifugation (16 h 30 min, 132,000 x g) of nuclear extracts from Ctrl primary human lung fibroblasts in native nuclear lysis buffer (100 mM NaCl, 50 mM Tris-HCl pH 7.0); ten fractions analysed by western blot; the complex was also reconstituted in IPF fibroblasts transfected with MIRLET7D
# [2] = target: T1, exosome-associated protein C1D (human (endogenous in primary lung fibroblasts)) (UniProt Q13901); experiment: co-IP; C1D-specific antibodies precipitate endogenous C1D from nuclear protein extracts of IPF primary human lung fibroblasts treated with the EP300 inhibitor CBP30 (EP300inh); western blot
# T1 sequence: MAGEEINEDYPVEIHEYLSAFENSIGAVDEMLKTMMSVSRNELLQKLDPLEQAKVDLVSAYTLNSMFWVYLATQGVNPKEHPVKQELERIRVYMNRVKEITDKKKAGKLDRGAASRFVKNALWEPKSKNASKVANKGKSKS
# [3] = target: T1, exosome-associated protein C1D (human (endogenous in primary lung fibroblasts)); experiment: co-IP; C1D-specific antibodies precipitate endogenous C1D from nuclear protein extracts of Ctrl primary human lung fibroblasts transfected with HA-tagged EXOSC10 full-length or del3 (lacking amino acids 1-285); western blot
# [4] = target: T1, exosome-associated protein C1D (human (endogenous in primary lung fibroblasts)); experiment: co-IP; C1D-specific antibodies precipitate endogenous C1D from nuclear protein extracts of IPF primary human lung fibroblasts transfected with a dominant-negative EP300 (dnEP300, D1399Y) expression construct; western blot
# [5] = target: T1, exosome-associated protein C1D (human (endogenous in primary lung fibroblasts)); experiment: condition: only nuclear extracts of IPF fibroblasts (empty plasmid, lane 7); co-IP; C1D-specific antibodies precipitate endogenous C1D from nuclear protein extracts of IPF primary human lung fibroblasts transfected with empty plasmid (lane 7); western blot
substance,measurement,setting,value
histone deacetylase 1 (from UniProt Q13547 1-482) (enzyme),binding,[1],binds
same,binding,[2],binds
same,binding,[3],binds
same,binding,[4],binds
same,binding,[5],no binding
